Measured values reported in PubChem BioAssay AID758 (NMMLSC, 2007).
The whole screen tested about 190,000 compounds, of which about 110 (0.058%) were called active. This list was built around the results that the source calls inconclusive (neither active nor inactive); the mix of calls is not that of the screen.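 The calls were made as follows: active = fluorescent GTP binding to Rab7 beads changed by at least 20 points from the 100% baseline, either direction, mostly lower; inconclusive = compound itself probably fluorescent, or too few beads counted; inactive = the rest.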

system: Rab7 GTPase wild type (dog), Bodipy-FL-GTP binding; assay: modulators of GTP binding to Rab7, primary screen, biochemical, wildtype, multiplex bead flow cytometry (AID 758); conditions: GST-Rab7 beads, fluorescent GTP binding, at 10 µM, actives lie on both sides, untreated = 100%, excess cold GTP = 0%;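 also: median green fluorescence of bound Bodipy-FL-GTP per Rab7 bead population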

| SMILES | GTP binding activity (percent of control) |
| --- | --- |
| O=C(N/N=C/c1ccccn1)c1cccc(S(=O)(=O)Nc2ccccc2Cl)c1 | inconclusive: 92% |
| CO/N=C/C(=N\Nc1cc(OC)cc(OC)c1)C(=O)c1ccccc1 | inconclusive: 93% |
| O=C(NCCN1CCOCC1)c1csc2c1CCCCC2 | inconclusive: 102% |
| CCCc1cc(-n2ccnc2)n2c(nc3ccccc32)c1C#N | inconclusive: 120% |
| COc1ccnc(Nc2ccc(C)c(C)c2)c1C#N | inconclusive: 104% |
| Cc1cccc(NC(=O)[C@H](Cc2ccccc2)NC(=O)OCc2ccccc2)c1 | inconclusive: 99% |
| COc1ccc(Oc2cnc3ccccc3n2)cc1 | inconclusive: 93% |
| CC(C)Nc1nnc(SCC(=O)Nc2ccc3c(c2)C(=O)c2ccccc2C3=O)s1 | inconclusive: 90% |
| Cn1ncc(Cl)c1C(=O)Nc1nc2ccc(Cl)cc2s1 | inconclusive: 95% |
| O=C(CS(=O)(=O)Cc1ccccc1)N1CCc2ccccc21 | inconclusive: 102% |
| COc1ccc(N=C2SC(C(=O)N3CCN(c4ccccc4)CC3)CC(=O)N2C)cc1 (configuration not stated) | inactive: 92% |
| CCOC(=O)CSc1ccc(C(=O)Nc2ccc(OC)cc2)cn1 | inactive: 100% |
| CCN(CC)c1ccc(/C=c2/sc3nnc(-c4ccccc4C)n3c2=O)cc1 | inconclusive: 192% |
| COc1cc(-c2nc(-c3ccncc3)no2)cc(OC)c1OC | inconclusive: 103% |
| Cc1cccc(NC(=S)N(CCCN2CCOCC2)Cc2ccccn2)c1 | inconclusive: 104% |
| CC1Sc2ccccc2N(CC(=O)N(C(C)C)C(C)C)C1=O (configuration not stated) | inconclusive: 95% |
| O=C(NC(=S)Nc1cc(C(F)(F)F)ccc1N1CCOCC1)c1sc2ccccc2c1Cl | inconclusive: 102% |
| COc1ccc(N(C)C(=O)CCS(=O)(=O)c2cccc3nonc23)cc1 | inconclusive: 94% |
| CCOC(=O)C1=C2SCCN2C(=O)C(C#N)C1(C)C (configuration not stated) | inconclusive: 107% |
| CC(C)CCNC(=O)CCCn1c(=O)[nH]c2ccc(Br)cc2c1=O | inconclusive: 103% |
| CCOc1ccccc1N1C(=O)CC(N(O)c2ccccc2)C1=O (configuration not stated) | inconclusive: 103% |

Of the compounds above, these contain a thiophene ring, fused or not.

| SMILES | GTP binding activity (percent of control) |
| --- | --- |
| O=C(NCCN1CCOCC1)c1csc2c1CCCCC2 | inconclusive: 102% |
| O=C(NC(=S)Nc1cc(C(F)(F)F)ccc1N1CCOCC1)c1sc2ccccc2c1Cl | inconclusive: 102% |

(cont.)

| SMILES | GTP binding activity (percent of control) |
| --- | --- |
| Cc1ccc(SCC(=O)N2CCc3ccccc32)cc1 | inconclusive: 100% |
| O=C(O)CCSc1nc2ccccc2s1 | inactive: 95% |
| CCCC1=C(C(=O)OCC)C(c2cccs2)C(C#N)=C(N)O1 (configuration not stated) | inconclusive: 97% |
| Cn1c(-c2ccccc2)cnc1N | inconclusive: 104% |
| CC(C)NC(=O)C(OC(=O)c1ccccc1)C(OC(=O)c1ccccc1)C(=O)O (configuration not stated) | inconclusive: 105% |
| O=c1cc(CSc2nc3ccccc3c(=O)[nH]2)c2ccc(O)cc2o1 | inactive: 92% |
| Cc1nc2ccccc2c(=O)n1CCN1CCOCC1 | inconclusive: 107% |
| Cn1c(O)c(C2=c3ccccc3=NC2=O)[nH]c1=S | inactive: 94% |
| CCOc1ccc(NC(=O)CNC(=O)c2cccs2)cc1 | inactive: 106% |
| Nc1nc(N)c2sc3nc4c(cc3c2n1)CCC4 | inconclusive: 89% |
| O=C(CSc1nc(-c2ccccc2)nc2c1Cc1ccccc1O2)Nc1ccc(C(=O)O)cc1 | inconclusive: 93% |
| C=CCn1c(=O)n2ncnc2c2c3c(sc21)CCCC3 | inconclusive: 91% |
| COc1ccc2nc(C)cc(SCC(=O)N/N=C/c3ccc(O)cc3O)c2c1 | inconclusive: 88% |
| Cc1ccc(COC(=O)c2ccc3c(c2)C(=O)N(CCCN2CCOCC2)C3=O)cc1 | inconclusive: 96% |
| C=CCn1c(C)cc(C(=O)CN2C(=O)c3ccccc3C2=O)c1C | inconclusive: 104% |
| CC(c1nnnn1C(C)(C)C)N(Cc1cccnc1)Cc1ccccc1Cl (configuration not stated) | inconclusive: 95% |
| Cc1[nH]c2ccccc2c1SCC(=O)N1CCCCCC1 | inactive: 102% |
| CC(=O)c1sc(N/N=C/c2cccc(O)c2)nc1C | inconclusive: 90% |
| CC(=O)N1CCN=C1SCc1ccc(Br)cc1 | inconclusive: 104% |
| CC(OC(=O)c1cc2c(ccc3ccccc32)oc1=O)c1nc2ccccc2s1 (configuration not stated) | inconclusive: 88% |
| Cn1c(=O)n(Cc2ccccc2F)c(=O)c2c1nc1n2CCCN1CCc1ccccc1 | inconclusive: 93% |

| SMILES | GTP binding activity (percent of control) |
| --- | --- |
| Clc1ccccc1Nc1nc(-c2cccnc2)cs1 | inactive: 94% |
| Cc1cc(C)n2nc(SCN3C(=O)c4ccccc4C3=O)nc2n1 | inconclusive: 106% |
| CC(C)n1cc(/C=C(\C#N)S(=O)(=O)c2ccccc2)c2ccccc21 | inconclusive: 101% |
| C1COCCNCCOCCOCCOCCN1 | inactive: 101% |
| NC(=S)N/N=C/c1ccc(-c2cc(Cl)cc(Cl)c2)o1 | inconclusive: 88% |
| Cc1nn(Cc2ccc(Cl)cc2)c2sc(C(=O)O)cc12 | inactive: 96% |
| CCCn1c(SCC(=O)N2CCCC(C)C2)nnc1-c1ccccn1 (configuration not stated) | inactive: 103% |
| O=C(CN1CCN(c2ccc(F)cc2)CC1)Nc1cccc(C(F)(F)F)c1 | inconclusive: 103% |
| COc1ccc(CN2C(=O)NC3(CCCC3)C2=O)cc1F | inconclusive: 105% |
| CCC(=O)NC(=S)Nc1cccc(NC(=O)c2ccco2)c1 | inconclusive: 94% |
| CCOC(=O)c1sc(N)c(C(N)=O)c1C | inconclusive: 88% |
| CCCCC1(CC)C(=O)NC(=O)NC1=Nc1ccc(OC)cc1 (configuration not stated) | inconclusive: 105% |
| O=C(Nc1ccc([N+](=O)[O-])cc1Br)c1cccnc1 | inconclusive: 95% |
| CCCc1cc(NCC2CCCO2)n2c(nc3ccccc32)c1C#N (configuration not stated) | inactive: 94% |
| CCN(CC)S(=O)(=O)c1ccc(NC(=S)NC(=O)CC(C)C)cc1 | inconclusive: 97% |
| CCCN1C(=O)/C(=C/c2ccc(C)o2)SC1=Nc1ccc(OCC)cc1 | inconclusive: 103% |
| COc1c(C(=O)Nc2c(C)n(C)n(-c3ccccc3)c2=O)ccc2ccccc12 | inconclusive: 105% |
| O=C(CN1C(=O)CCC1=O)NCC12CC3CC(CC(C3)C1)C2 | inconclusive: 93% |
| CSCC[C@H](NC(=O)Nc1ccc(C)cc1C)C(=O)O | inconclusive: 101% |
| Cc1ccc(CN2C(=O)CCC2C(=O)NC(C)C)cc1 (configuration not stated) | inconclusive: 98% |

Compounds above that have a CF3 group (2):

| SMILES | GTP binding activity (percent of control) |
| --- | --- |
| O=C(NC(=S)Nc1cc(C(F)(F)F)ccc1N1CCOCC1)c1sc2ccccc2c1Cl | inconclusive: 102% |
| O=C(CN1CCN(c2ccc(F)cc2)CC1)Nc1cccc(C(F)(F)F)c1 | inconclusive: 103% |
